Test results as given in US20260159546A1, “PHARMACEUTICAL COMPOSITION FOR TREATING SEPSIS INCLUDING DUAL ALARMIN-RECEPTOR-SPECIFIC TARGETING PEPTIDE” (Industry-University Cooperation Foundation Hanyang …, priority 2024, published 2026).
Results are given in words; binding and its absence hold for the method and conditions named. Some binding calls cover weakened binding; strength is not graded here.

The chains behind the UniProt entries cited, without tags or fusion partners. Residues count along the entry.
UniProt Q9QUK6, residues 26-835: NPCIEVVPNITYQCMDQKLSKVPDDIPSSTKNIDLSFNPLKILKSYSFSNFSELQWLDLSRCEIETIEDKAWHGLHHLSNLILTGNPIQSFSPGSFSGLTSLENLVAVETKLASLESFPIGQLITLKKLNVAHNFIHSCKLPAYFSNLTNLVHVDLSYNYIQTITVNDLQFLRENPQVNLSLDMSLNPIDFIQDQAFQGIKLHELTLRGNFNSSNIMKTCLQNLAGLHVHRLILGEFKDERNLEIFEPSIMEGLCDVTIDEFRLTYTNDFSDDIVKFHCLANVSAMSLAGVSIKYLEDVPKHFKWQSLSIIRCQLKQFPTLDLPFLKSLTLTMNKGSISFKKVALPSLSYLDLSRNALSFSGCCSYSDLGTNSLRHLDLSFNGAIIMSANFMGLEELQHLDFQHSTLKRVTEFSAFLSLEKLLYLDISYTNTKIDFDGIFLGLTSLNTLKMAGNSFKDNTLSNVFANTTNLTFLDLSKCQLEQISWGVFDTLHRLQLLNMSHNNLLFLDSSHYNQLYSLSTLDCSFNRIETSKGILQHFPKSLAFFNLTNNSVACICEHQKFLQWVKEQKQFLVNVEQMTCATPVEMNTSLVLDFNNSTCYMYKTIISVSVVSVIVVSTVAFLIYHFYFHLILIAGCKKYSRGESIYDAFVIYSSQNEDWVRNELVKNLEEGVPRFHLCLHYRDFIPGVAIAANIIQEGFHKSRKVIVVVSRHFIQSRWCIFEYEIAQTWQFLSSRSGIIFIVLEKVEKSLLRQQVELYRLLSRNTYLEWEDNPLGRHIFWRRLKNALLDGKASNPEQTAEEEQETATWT
UniProt P26022, residues 18-381: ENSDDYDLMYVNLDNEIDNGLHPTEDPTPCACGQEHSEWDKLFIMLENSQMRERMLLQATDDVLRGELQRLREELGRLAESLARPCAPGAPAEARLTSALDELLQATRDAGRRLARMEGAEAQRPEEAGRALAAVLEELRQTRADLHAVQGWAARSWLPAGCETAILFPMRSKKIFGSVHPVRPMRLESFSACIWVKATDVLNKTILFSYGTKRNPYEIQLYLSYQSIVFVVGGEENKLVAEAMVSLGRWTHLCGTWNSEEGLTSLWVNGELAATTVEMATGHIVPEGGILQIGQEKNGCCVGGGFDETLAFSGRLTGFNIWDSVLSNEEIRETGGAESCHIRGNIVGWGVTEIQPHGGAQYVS

Experiments:
[1] = target: T1, MD2 of murine bone marrow-derived macrophages (BMDMs) (mouse) (UniProt Q9JHF9); assay: BMDMs incubated with 10 µg/mL rFlag-PTX3 for 3 h; IP with anti-MD2, immunoblot (FIG. 1D right)
T1 sequence (looked up): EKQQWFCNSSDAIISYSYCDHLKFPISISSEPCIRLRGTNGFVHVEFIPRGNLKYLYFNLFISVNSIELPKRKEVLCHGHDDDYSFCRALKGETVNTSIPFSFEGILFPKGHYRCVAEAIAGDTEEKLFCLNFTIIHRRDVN

[2] = target: TLR4 of murine bone marrow-derived macrophages (BMDMs) (mouse) (UniProt Q9QUK6); assay: BMDMs incubated with 10 µg/mL rFlag-PTX3 for 3 h; IP with anti-TLR4, immunoblot (FIG. 1D right)

binding [1]: binds
binding [2]: binds
Substance: recombinant Flag-PTX3 (from UniProt P26022 18-381) (ligand)
